This is an account of results in article PMC2813880.

Amino acid sequences for entries named in this document (tags omitted). A change or cut given only in a name is not applied to a line headed by its entry. Chains listed by the source or under a name are the forms on record and can include a tag or linker.
UniProt P23443: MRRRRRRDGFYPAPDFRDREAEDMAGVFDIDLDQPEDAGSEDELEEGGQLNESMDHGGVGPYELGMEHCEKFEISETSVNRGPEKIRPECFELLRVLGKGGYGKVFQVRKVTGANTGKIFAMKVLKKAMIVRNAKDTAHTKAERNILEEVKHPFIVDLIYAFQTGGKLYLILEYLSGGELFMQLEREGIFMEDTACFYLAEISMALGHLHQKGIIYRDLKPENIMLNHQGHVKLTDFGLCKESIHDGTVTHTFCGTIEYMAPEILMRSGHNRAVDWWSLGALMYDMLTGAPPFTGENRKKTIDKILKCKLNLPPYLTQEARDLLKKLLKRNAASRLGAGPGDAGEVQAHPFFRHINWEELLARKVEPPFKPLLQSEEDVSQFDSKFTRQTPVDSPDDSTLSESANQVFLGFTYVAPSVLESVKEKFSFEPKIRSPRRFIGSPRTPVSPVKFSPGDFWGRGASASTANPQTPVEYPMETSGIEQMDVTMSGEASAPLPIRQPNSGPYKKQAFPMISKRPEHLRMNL
UniProt O00303: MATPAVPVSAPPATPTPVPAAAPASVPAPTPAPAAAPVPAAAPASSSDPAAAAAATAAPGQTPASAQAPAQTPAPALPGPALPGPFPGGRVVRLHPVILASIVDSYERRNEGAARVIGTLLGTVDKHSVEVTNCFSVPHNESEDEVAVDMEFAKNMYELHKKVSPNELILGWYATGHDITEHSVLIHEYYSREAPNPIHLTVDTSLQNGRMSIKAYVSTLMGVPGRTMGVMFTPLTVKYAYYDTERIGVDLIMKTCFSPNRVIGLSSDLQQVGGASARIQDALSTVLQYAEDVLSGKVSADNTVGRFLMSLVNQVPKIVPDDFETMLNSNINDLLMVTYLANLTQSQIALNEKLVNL
UniProt Q8BSK8: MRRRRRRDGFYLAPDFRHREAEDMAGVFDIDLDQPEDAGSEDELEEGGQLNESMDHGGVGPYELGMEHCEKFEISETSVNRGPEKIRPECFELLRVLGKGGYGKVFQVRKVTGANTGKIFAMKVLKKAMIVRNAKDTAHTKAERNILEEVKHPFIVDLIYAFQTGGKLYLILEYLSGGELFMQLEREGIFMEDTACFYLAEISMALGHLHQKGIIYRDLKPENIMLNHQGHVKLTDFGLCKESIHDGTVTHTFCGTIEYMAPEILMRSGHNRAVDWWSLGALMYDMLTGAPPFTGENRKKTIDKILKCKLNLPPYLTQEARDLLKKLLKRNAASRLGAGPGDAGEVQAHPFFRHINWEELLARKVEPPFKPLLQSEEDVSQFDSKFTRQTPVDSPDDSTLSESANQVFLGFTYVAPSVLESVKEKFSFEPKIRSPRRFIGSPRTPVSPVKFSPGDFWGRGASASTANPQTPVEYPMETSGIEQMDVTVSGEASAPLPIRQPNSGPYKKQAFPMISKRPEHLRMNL
UniProt P63073: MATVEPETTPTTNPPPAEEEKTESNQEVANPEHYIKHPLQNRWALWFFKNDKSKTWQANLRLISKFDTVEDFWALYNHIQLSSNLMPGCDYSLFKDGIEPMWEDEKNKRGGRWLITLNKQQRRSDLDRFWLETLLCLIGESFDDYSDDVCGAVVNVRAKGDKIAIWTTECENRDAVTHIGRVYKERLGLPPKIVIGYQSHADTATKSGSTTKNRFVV
UniProt Q8N122: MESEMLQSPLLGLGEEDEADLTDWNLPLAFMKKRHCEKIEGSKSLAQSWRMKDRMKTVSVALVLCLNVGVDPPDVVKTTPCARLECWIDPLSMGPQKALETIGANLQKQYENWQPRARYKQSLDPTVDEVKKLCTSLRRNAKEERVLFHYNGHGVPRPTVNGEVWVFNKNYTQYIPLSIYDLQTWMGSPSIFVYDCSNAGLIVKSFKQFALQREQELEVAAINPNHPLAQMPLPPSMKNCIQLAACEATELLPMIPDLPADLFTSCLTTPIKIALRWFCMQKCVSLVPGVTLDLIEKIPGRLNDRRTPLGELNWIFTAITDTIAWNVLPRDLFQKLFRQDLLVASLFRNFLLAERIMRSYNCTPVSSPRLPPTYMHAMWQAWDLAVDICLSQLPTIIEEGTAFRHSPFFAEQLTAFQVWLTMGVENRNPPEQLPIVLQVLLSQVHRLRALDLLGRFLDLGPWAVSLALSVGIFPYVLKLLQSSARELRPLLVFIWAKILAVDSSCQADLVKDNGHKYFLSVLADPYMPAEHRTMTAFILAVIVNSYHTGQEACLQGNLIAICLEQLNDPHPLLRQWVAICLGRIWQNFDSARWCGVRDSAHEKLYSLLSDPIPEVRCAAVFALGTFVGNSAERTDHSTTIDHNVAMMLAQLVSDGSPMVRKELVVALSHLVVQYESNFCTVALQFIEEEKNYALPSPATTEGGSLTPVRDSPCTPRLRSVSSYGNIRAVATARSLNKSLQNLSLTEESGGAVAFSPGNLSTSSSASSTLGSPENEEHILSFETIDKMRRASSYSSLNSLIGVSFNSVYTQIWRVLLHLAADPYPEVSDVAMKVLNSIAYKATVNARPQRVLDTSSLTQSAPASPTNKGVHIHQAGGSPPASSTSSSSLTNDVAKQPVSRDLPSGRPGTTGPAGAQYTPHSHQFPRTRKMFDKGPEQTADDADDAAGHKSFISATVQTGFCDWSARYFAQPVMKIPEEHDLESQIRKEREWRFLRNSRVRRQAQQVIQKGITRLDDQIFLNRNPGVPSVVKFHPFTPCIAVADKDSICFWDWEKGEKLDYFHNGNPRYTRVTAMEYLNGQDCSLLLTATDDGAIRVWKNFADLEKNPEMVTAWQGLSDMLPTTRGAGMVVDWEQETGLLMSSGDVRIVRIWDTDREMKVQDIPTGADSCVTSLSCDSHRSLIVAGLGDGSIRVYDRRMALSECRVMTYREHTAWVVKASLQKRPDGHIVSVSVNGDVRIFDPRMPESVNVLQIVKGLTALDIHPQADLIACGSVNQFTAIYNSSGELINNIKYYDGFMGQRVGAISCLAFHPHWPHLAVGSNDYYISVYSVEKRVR
UniProt Q9DCH4: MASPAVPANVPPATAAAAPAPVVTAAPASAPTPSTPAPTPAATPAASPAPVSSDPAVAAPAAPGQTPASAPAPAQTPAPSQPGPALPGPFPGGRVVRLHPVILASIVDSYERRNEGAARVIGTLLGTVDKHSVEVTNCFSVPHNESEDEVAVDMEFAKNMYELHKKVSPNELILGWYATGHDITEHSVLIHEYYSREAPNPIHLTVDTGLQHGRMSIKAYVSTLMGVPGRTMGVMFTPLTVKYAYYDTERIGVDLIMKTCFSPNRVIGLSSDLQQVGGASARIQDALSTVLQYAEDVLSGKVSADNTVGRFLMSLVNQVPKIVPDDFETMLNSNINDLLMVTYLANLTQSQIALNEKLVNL
HA-tagged eIF3f mutant K_(5–10)R (Q9DCH4, form named): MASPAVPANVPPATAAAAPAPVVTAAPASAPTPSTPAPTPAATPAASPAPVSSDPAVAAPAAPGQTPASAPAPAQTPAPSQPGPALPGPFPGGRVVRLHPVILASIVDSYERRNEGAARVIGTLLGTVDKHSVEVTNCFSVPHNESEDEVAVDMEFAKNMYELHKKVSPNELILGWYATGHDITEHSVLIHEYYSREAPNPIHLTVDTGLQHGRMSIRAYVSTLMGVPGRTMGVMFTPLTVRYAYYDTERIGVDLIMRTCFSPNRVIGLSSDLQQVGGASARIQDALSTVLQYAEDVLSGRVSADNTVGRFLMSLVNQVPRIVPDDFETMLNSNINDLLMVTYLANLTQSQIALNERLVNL
UniProt Q8K4Q0: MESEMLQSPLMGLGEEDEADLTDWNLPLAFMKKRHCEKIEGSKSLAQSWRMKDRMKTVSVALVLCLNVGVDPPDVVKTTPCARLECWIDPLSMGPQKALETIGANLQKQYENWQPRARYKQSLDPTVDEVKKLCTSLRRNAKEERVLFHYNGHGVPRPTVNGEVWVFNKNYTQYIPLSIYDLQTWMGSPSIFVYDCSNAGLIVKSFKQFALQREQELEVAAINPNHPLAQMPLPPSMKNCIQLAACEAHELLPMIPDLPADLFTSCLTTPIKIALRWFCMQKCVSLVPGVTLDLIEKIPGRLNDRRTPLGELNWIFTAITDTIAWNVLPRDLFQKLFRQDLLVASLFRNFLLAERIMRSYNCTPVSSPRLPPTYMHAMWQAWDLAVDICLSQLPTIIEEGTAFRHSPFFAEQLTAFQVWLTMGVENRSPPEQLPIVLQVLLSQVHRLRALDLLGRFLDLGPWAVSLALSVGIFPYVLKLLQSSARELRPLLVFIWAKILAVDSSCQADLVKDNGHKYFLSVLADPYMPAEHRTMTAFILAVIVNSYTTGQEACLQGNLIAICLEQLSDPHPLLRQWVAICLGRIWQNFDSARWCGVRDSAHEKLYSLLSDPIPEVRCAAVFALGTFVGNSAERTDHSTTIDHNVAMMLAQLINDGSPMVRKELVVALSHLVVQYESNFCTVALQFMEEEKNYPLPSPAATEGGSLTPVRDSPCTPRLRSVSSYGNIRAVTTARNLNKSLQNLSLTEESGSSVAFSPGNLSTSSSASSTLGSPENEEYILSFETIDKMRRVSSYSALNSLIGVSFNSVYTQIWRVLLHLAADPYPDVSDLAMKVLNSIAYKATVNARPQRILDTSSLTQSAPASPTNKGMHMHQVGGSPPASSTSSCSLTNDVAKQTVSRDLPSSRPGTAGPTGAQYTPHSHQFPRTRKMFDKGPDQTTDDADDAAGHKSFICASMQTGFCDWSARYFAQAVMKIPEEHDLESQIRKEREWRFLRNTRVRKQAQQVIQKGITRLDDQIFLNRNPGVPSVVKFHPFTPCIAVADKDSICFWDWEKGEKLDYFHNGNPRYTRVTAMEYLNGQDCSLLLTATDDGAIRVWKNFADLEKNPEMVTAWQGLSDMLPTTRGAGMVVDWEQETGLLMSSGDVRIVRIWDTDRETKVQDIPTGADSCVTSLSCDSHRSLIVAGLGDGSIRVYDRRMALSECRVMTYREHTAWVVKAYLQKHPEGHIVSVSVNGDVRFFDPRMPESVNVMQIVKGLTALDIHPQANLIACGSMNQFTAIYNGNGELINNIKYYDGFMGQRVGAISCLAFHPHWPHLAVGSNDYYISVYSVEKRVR

Experiment [1] concerns the target GST-S6K1 (unphosphorylated) (UniProt P23443). The experiment in a line: pull-down; GST-S6K1 (unphosphorylated) beads (GSH-agarose) incubated with in vitro translated HA-tagged eIF3f wt or mutant K5-10R; immunoblot; only the target purified. For orientation: A western blot detects proteins with antibodies after separation by electrophoresis.
The target in experiment [2] is GST-eIF3f (human) (UniProt O00303). The experiment in a line: pull-down; GST-eIF3f beads incubated with total cellular extracts (300 µg) of mouse primary satellite myotubes in differentiation medium (control) or starved for 3 h; immunoblot; only the target purified.
The target in experiment [3] is endogenous S6K1 (mouse (endogenous in primary cultured satellite cells)) (UniProt Q8BSK8). The experiment in a line: co-IP; Flag-tagged eIF3f wt and deletion mutants transfected in mouse primary cultured satellite cells; total cellular extracts immunoprecipitated with anti-S6K1 (endogenous S6K1), immunoblot.
Experiment [4] deals with eIF4E (cap-binding protein held on m7-GTP Sepharose) (mouse (endogenous in primary myotubes)) (UniProt P63073). The experiment in a line: pull-down; cap pull-down: m7GTP Sepharose 4B beads with 300 µg cleared lysate of mouse primary myotubes (empty vector, HA-eIF3f wt, K5-10R, or control shRNA), 4°C overnight; Western blot.
Experiment [5] has as its target endogenous S6K1 (mouse (endogenous in primary cultured satellite cells)) (UniProt Q8BSK8). The experiment in a line: co-IP; data not shown; HA-tagged eIF3f wt or K5-10R with endogenous S6K1 in rapamycin-treated mouse primary myotubes.
Experiment [6] has as its target Myc-tagged raptor (UniProt Q8N122). The experiment in a line: co-IP; Myc-raptor cotransfected with HA-eIF3f wt or F323A in mouse primary muscle cells, differentiated 4 days, lysed in immunoprecipitation buffer without detergent; immunoprecipitation with anti-Myc, immunoblot.
Experiment [7] addresses HA-tagged eIF3f wt (mouse) (UniProt Q9DCH4). The experiment in a line: co-IP; HA-tagged eIF3f wt or K5-10R transfected in mouse primary skeletal muscle cells; extracts of 3 days differentiated myotubes immunoprecipitated with anti-HA; blots for endogenous mTOR and raptor, quantified relative to HA-eIF3f; also after 20 nM rapamycin (Figure S1, 'destabilizes').

These are yes or no findings as the source states them, for the method shown. Binding seen in cells or lysates may run through a third protein. Some results given as binding are weak or reduced against the parent protein; the word gives no strength.

As to “in vitro translated HA-tagged eIF3f mutant K_(5–10)R (from UniProt Q9DCH4 1-361)”, the binding result in experiment [1] was “binds”.
As for “endogenous S6K1 (from UniProt Q8BSK8 1-525) (enzyme)”, in experiment [2], the binding result is “binds”.
On to “Flag-tagged eIF3f deletion mutant, amino acid residues 91–221 (from UniProt O00303 91-221) (domain or fragment)”, for which, in experiment [3], the binding result is “binds”.
Consider “HA-tagged eIF3f mutant K_(5–10)R (from UniProt Q9DCH4 1-361)”, for which the binding entry in experiment [4] and in experiment [5] was “binds” throughout.
As for “in vitro translated HA-tagged eIF3f wt (from UniProt Q9DCH4 1-361)”, the binding entry in experiment [1] is recorded as “binds”.
As to “eIF3f deletion mutant (aa1–221) (from UniProt O00303 1-221) (domain or fragment)”, the binding result in experiment [3] was “binds”.
Take “HA-tagged eIF3f wt (from UniProt Q9DCH4 1-361)”: the binding result in experiment [6] and in experiment [5] was “binds” each time.
On to “endogenous raptor (from UniProt Q8K4Q0 1-1335)”, for which the binding entry in experiment [7] is on record as “binds”.
